Laboratory results reported in PubChem BioAssay AID1347075 (National Center for Advancing Translational Sciences (NCATS), 2019).
About 5,500 (1.4%) of roughly 400,000 compounds were called active. The inconclusive results got no clear call from the source; some entries with a clear call stand among them for comparison. The call rests on the fitted dose curve; in most records, active means well fitted cell-killing curve with a large enough effect; inconclusive means small, poorly fitted or top-dose-only effect, or effect the other way; inactive means flat fitted curve, though single readings scatter. Potencies of inconclusive entries are doubtful fits and often do not repeat.

Experiment: qHTS assay for MDR1-selective chemotherapeutics: Primary screen using the parental adenocarcinoma cell KB-3-1; further: nearly all actives have a fitted effect of over 60% in size
Conditions: KB-3-1 viability, CellTiter-Glo ATP luminescence, 72 h; activity change, negative = cytotoxic: at 46.1 µM (top of the series)
How it was run: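 Luminescent ATP read-out (CellTiter-Glo) measures survival of drug-naive KB-3-1 cells after 72 h compound exposure at 37 °C. Titration series was screened from lowest to highest concentration, with DMSO vehicle plates as background controls.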
On the % scale 0 is the no-effect control and ±100 the full control effect; potency means the concentration at half of the fitted maximal effect.

Structure (SMILES)	activity change, negative = cytotoxic	Potency
C=CCNC(=O)c1onc(CSc2cc(C)cc(C)c2)c1C(=O)NCC=C	inconclusive: 3.79%	–
O=C1c2[nH]nc(-c3ccccc3O)c2C(c2cccc(Br)c2)N1Cc1ccncc1 (stereo unspecified)	–	active: 2.59 µM
CCc1ccc(S(=O)(=O)ON2C(=O)c3ccccc3C2=O)cc1	–	inactive
CC(C)C[C@@H]1O[C@H](CCc2ccccc2)Cc2[nH][nH]c(=O)c21	–	inactive
CN(C)c1ccc(CNC(=O)Cn2c(=O)oc3cc(S(=O)(=O)NCc4ccccc4)ccc32)cc1	–	inconclusive: 16.4 µM [cytotoxic, partial curve, poor fit]
Clc1ccc(-c2csc3ncnc(Sc4nnnn4C4CC4)c23)cc1	–	inconclusive: 29.1 µM [cytotoxic, single point]
O=C(Nc1ccncc1)c1ccc(Cl)c([N+](=O)[O-])c1	–	inconclusive: 29.1 µM [cytotoxic, single point]
COc1ccc(NC(=O)c2cc3ccc(O)cc3o/c2=N\O)cc1	–	inconclusive: 29.1 µM [cytotoxic, single point]
CCN1CCN(c2cc(C)c3cc(NC(=O)c4cc(Br)ccc4Cl)ccc3n2)CC1	–	inactive
CC(C)c1ccc([C@@H]2O[C@H](CCc3ccccc3)CC3=C2C(=O)OC(C)(C)O3)cc1	–	inconclusive: 29.1 µM [cytotoxic, single point]
Cc1ccc(NC(=O)COC(=O)c2sccc2C)cc1S(=O)(=O)N1CCOCC1	–	inconclusive: 14.6 µM [rising, partial curve, poor fit]
O=C1c2ccccc2CCC12N=NCC2c1ccc(Cl)cc1 (stereo unspecified)	–	inactive
COCCCNC(=O)CSc1nc(-c2ccc(OC)cc2)[nH]c1-c1ccc(OC)cc1	–	inactive
CC/C(=N\NC(=S)NC(C)C)c1ccc(OC)c(OC)c1	–	inactive
CCOC(=O)C1=C(c2cccc(Oc3ccccc3)c2)NC(=S)NC1C (stereo unspecified)	–	inconclusive: 23.1 µM [cytotoxic, single point]
CCCCCCN1C[C@@H](n2cc(-c3ccc(F)cc3)nn2)[C@H](O)C[C@@H]1c1ccc(Cl)cc1	–	inconclusive: 16.4 µM [cytotoxic, single point]
O=C(NCCCNC(=O)c1cccs1)c1cccs1	–	inconclusive: 29.1 µM [cytotoxic, single point]
Cc1ccccc1NC(=S)N(Cc1cccnc1)Cc1ccccc1Cl	–	inactive
CCCCN1C2=NCCCN2c2ccccc21	–	inactive
Cc1ccc(N(CC(=O)NCc2ccc(F)cc2)S(=O)(=O)c2c(C)n[nH]c2C)cc1	–	inconclusive: 29.1 µM [cytotoxic, single point]
Cc1ccc(C2=NN=C(NC(=O)CSc3nnc4c5ccccc5n(C)c4n3)SC2)cc1	–	inconclusive: 18.4 µM [cytotoxic, single point]
COc1cccc(-c2nnc(NC(=O)c3ccc(S(=O)(=O)N4CC(C)OC(C)C4)cc3)o2)c1 (stereo unspecified)	–	inconclusive: 1.3 µM [cytotoxic, full curve]
CC(C)OCCCNC(=O)CCC(=O)NNc1nc2ccccc2c2nc(-c3ccccc3)nn12	–	inactive
COc1cc(N2CCCC2)c(OC)cc1/C=C1/NC(=S)NC1=O	–	inactive
COc1cccc(-c2nn(C)c3sc(C(=O)NCc4ccc(C)cc4)cc23)c1	–	inactive
CCOc1ccc(NS(=O)(=O)c2ccc3[nH]cc(C(=O)NC(C)CC)c(=O)c3c2)cc1 (stereo unspecified)	–	inconclusive: 29.1 µM [cytotoxic, single point]

An excerpt from above in order of formula weight, smallest number first.
Structure (SMILES)	activity change, negative = cytotoxic	Potency
CC/C(=N\NC(=S)NC(C)C)c1ccc(OC)c(OC)c1	–	inactive
Cc1ccccc1NC(=S)N(Cc1cccnc1)Cc1ccccc1Cl	–	inactive
COc1cccc(-c2nn(C)c3sc(C(=O)NCc4ccc(C)cc4)cc23)c1	–	inactive
O=C1c2[nH]nc(-c3ccccc3O)c2C(c2cccc(Br)c2)N1Cc1ccncc1 (stereo unspecified)	–	active: 2.59 µM
COc1cccc(-c2nnc(NC(=O)c3ccc(S(=O)(=O)N4CC(C)OC(C)C4)cc3)o2)c1 (stereo unspecified)	–	inconclusive: 1.3 µM [cytotoxic, full curve]
CC(C)OCCCNC(=O)CCC(=O)NNc1nc2ccccc2c2nc(-c3ccccc3)nn12	–	inactive

Remaining list, next part.

Structure (SMILES)	activity change, negative = cytotoxic	Potency
CCCOC(=O)NC(CC)COC(=O)Nc1cccc(C)c1C (stereo unspecified)	–	inactive
COc1ccccc1N(C(=O)c1snc(C(N)=O)c1N)C(C(=O)NCc1ccccc1)c1ccc(O)cc1 (stereo unspecified)	–	inactive
Cc1ccc(C)c(N2CCN(C3C(=O)Nc4ccccc4-n4nnnc43)CC2)c1 (stereo unspecified)	–	active: 14.6 µM
O=C(NCCN1C(=O)S/C(=C\c2ccc(Cl)c([N+](=O)[O-])c2)C1=O)C1=COCCO1	–	inconclusive: 18.4 µM [cytotoxic, single point]
Cc1cccc(CN2CCN(C3CN(CCc4ccccc4)S(=O)(=O)C3)CC2)c1 (stereo unspecified)	–	inconclusive: 32.6 µM [cytotoxic, single point]
O=C1c2ccccc2C(=O)N1OS(=O)(=O)c1ccc(F)cc1	–	inactive
Cc1c(C)c2cccnc2c2ncccc12	–	active: 6.51 µM
COc1ccc(CN(C)c2ccc(-c3nc(C)no3)cc2[N+](=O)[O-])cc1	–	inconclusive: 25.9 µM [cytotoxic, single point]
CCN(CCCNC(=O)CSc1cc(=O)n(C)c2cc(Cl)ccc12)c1ccccc1	–	inactive
O=C(COc1ccc(-n2ccnc2)cc1)Nc1cccc(F)c1	–	inconclusive: 6.51 µM [cytotoxic, partial curve]
NC(N)=Nc1nc(-c2ccccc2)c2cc(F)ccc2n1	–	active: 23.1 µM
O=C(/C=C/c1ccc([N+](=O)[O-])cc1)c1cccs1	–	inactive
Cc1ccn2c(NC(=O)C(C)(C)Oc3ccc(Cl)cc3)c(-c3cccs3)nc2c1	–	active: 25.9 µM
COc1ccc(C(=O)N/N=C/c2ccc(OC)c(CN3CCCc4ccccc43)c2)cc1	–	inactive
Cc1ccc(Sc2ccc(CO)cc2[N+](=O)[O-])cc1	–	inconclusive: 20.6 µM [cytotoxic, single point]
C[C@]12c3[nH]c4cc(-c5ccco5)ccc4c3CCN1C(=O)[C@@H](CC(=O)NCCCn1ccnc1)C[C@@H]2C(=O)N1CCOCC1	–	inactive
Cc1ccc(-c2cc(C(=O)NN3CCOCC3)c3cc(Br)ccc3n2)o1	–	inconclusive: 23.1 µM [cytotoxic, single point]
Cc1occc1-c1nnc(SCC(=O)Nc2ccccn2)o1	–	inactive
Cc1cc2nc(-c3nnnn3Cc3ccccc3)c(=O)[nH]c2cc1C	–	inactive
Cc1nc2ccccc2nc1-c1csc(-c2ccccc2)n1	–	inactive
COc1cc(C2C3=C(COC3=O)Oc3cc4c(cc32)OCO4)ccc1O (stereo unspecified)	–	active: 3.66 µM
CC1Cc2ccccc2N1C(=O)CSc1nnc(Cc2ccccc2)n1CCc1ccccc1 (stereo unspecified)	–	inactive
COc1ccc(NC(=O)/C(Cl)=C(/Cl)S(=O)Cc2ccccc2Cl)cn1 (stereo unspecified)	–	active: 18.4 µM
CO/N=C\CC(=O)Nc1ccc(Cl)cc1Cl	–	inconclusive: 20.6 µM [cytotoxic, single point]
COc1cccc(-n2c(-c3ccco3)nc3c(cnn3-c3ccccc3C)c2=O)c1	–	inactive
O=C(NNc1ccccc1Br)C(O)(c1cccc(C(F)(F)F)c1)c1cccc(C(F)(F)F)c1	–	inconclusive: 18.4 µM [cytotoxic, single point]

Structure (SMILES)	activity change, negative = cytotoxic	Potency
COc1cc(CN(CC2CCCO2)C(=O)c2cccs2)cc(OC)c1OC (stereo unspecified)	–	inactive
O=C(Oc1ccc(N(Cc2cccs2)C2=NS(=O)(=O)c3ccccc32)cc1)c1ccccc1Cl	–	inconclusive: 29.1 µM [cytotoxic, single point]
CCC(=O)NC(C)c1cc(Cl)c2cccnc2c1O (stereo unspecified)	–	active: 8.2 µM
CCc1cc2c(N3CCN(c4nnc(CC)s4)CC3)ncnc2s1	–	active: 9.2 µM
Clc1ccc(CSc2nnc(-c3ccncc3)o2)cc1	–	inconclusive: 35.5 µM [cytotoxic, single point]
CN(NS(C)(=O)=O)c1ncc(C(F)(F)F)cc1Cl	inconclusive: 12.1%	–
O=C(Cc1ccc([N+](=O)[O-])cc1)c1c(O)cc(O)cc1O	–	inactive
COc1cc(CN2CCC(Cc3ccccc3)CC2)cc([N+](=O)[O-])c1O	–	inactive
Oc1ccccc1/C=N/Nc1ncc(Br)cn1	–	inconclusive: 16.4 µM [cytotoxic, partial curve]
O=C(OCc1nc2ccc(Cl)cc2n1CCO)c1ccc(O)cc1	–	inactive
COc1ccc(N2CCN(C(=O)CN3C(=O)COc4ccccc43)CC2)cc1	–	inconclusive: 32.6 µM [rising, single point]
c1ccc(-c2ccc(OCCCNC3CCCC3)cc2)cc1	–	inconclusive: 20.6 µM [cytotoxic, single point]
CCO[C@@H]1OC(C(=O)NCc2nc3ccccc3[nH]2)=C[C@H](c2ccccc2)[C@H]1CCCO	–	inactive
O=C(c1cc(S(=O)(=O)N2CCOCC2)ccc1F)N1CCc2ccccc21	–	inconclusive: 14.6 µM [cytotoxic, partial curve, poor fit]
CCc1nc2ccccc2n1CCCCOc1ccc(Cl)cc1	–	inactive
Cc1ccc(NCC2(N=Cc3ccccc3)OC(CO)C(O)C2O)cc1 (stereo unspecified)	–	inconclusive: 20.6 µM [cytotoxic, single point]
COC(=O)c1nc(N)sc1-c1ccc(Cl)c(Cl)c1	–	inconclusive: 29.1 µM [cytotoxic, single point]
COc1ccc(/C=C2\SC(N3CCc4ccccc4C3)=NC2=O)cc1OC	–	inconclusive: 16.4 µM [rising, partial curve, poor fit]
Cc1cc(Nc2ccccc2Cl)c2ccccc2n1	–	inactive
O=C(NCCCNC(=O)c1c(F)cccc1F)c1c(F)cccc1F	–	inconclusive: 3.66 µM [rising, full curve, poor fit]
CC(=O)c1ccc(NC(=O)CSc2nc(=O)n3cccc(C)c3n2)cc1	–	inactive
COc1cccc(C(=O)Nc2nc(-c3ccccc3)c(-c3ccccc3)o2)c1	–	inconclusive: 20.6 µM [cytotoxic, single point]
CC(C)CC(N)c1csc(NC(=O)Nc2ccccc2Cc2ccccc2)n1 (stereo unspecified)	–	inconclusive: 29.1 µM [cytotoxic, single point]
CC(C)C1C(=O)N(Cc2cn(Cc3ccco3)nn2)CCS(=O)(=O)N1Cc1ccc(-c2cccc(N(C)C)c2)cc1 (stereo unspecified)	–	inconclusive: 9.2 µM [cytotoxic, partial curve, poor fit]
